# Values of other authors as cited in patent US5393742A, “Preparation for treating renal disease” (MECT Corporation, priority 1990, dated 1995).
# Where a name gives a salt, the structure may show the parent alone. At least one structure is not confirmed: it was looked up by name or label, or the drawing left a doubt.
# What was measured:
# [1] = system: excessive urinary protein; conditions: patients; cited from earlier work
# [2] = system: Aminonucleoside nephrosis; conditions: rats, compared with clinical tests; cited from earlier work
# [3] = system: Hetero anti kidney serum (rabbit) nephritis; conditions: rats, compared with clinical tests; cited from earlier work
structure (smiles),measurement,setting,value
C[S+](C)CCC(N)C(=O)O (stereo not drawn) [methyl methionine sulfonium salt],Effect on urine protein,[1],elimination or reduction of urine protein
same,Result in aminonucleoside nephrosis,[2],analogous results
same,Result in hetero anti kidney serum nephritis,[3],analogous results
